# PubChem BioAssay AID588497 (NMMLSC, 2011)
# Hit rate of the full screen: of about 360,000 compounds, about 780 (0.22%) were called active. Inconclusive results, whose numbers are uncertain, are shown with a selection of clear calls. No stated cut-off is given here; in the data, active means inhibition above about 35% (passing the limit was not always enough); inconclusive means no clear call, values can overlap the other calls.
# Test system: Botulinum neurotoxin type F light chain protease (Clostridium botulinum)
# Experiment: BoNT/F light chain protease inhibitors, primary screen, biochemical, flow cytometry, MLPCN library (AID 588497); further: plate controls were buffer without enzyme for full effect and enzyme alone for no effect
# Conditions: Multiplex microsphere protease cleavage assay, at 10 µM, active compounds read high
row,SMILES,inhibition
1,COc1ccc(C(=O)Nc2nnc(Cc3ccc(OC)c(OC)c3)s2)cc1,inconclusive: -9%
2,CCOC(=O)c1sc(-c2ccc(Cl)cc2)nc1O,inconclusive: 19.9%
3,CCN1CCN(CCc2nc3cc(NC(=O)COc4ccc(Cl)cc4)ccc3n2C)CC1,inconclusive: -40.2%
4,Cc1ccn2cc(CCNC(=O)CC(C)(C)C)nc2c1,inactive: 5.5%
5,Cc1ccc(Cl)cc1NC(=S)N(CCN(C)C)C(C)c1ccccn1 (stereo not drawn),inactive: -1.9%
6,CCOC(=O)c1[nH]c(Cc2[nH]c(C(=O)OCC)c(C)c2CCC(=O)OC)c(CCC(=O)OC)c1C,inconclusive: 0.9%
7,CC(C)CCn1c(=O)c(C(=O)NCc2ccco2)c(O)c2ccccc21,inconclusive: -49.2%
8,CC1CN(c2nc3ccccc3nc2C(C#N)C(=O)OC2CCCCC2)CC(C)O1 (stereo not drawn),inactive: 2.8%
9,O=C(NCCCNC(=O)c1ccc(F)cc1)c1ccc(F)cc1,active: 57%
10,COc1ccc(Cl)cc1Nc1cc(C)nc2ccccc12,inconclusive: -64.3%
11,COc1cc(/C=C2\SC(=O)NC2=O)ccc1Oc1cnccn1,inactive: -4%
12,CC(CN1CCOCC1)OC(=O)c1ccccc1 (stereo not drawn),inconclusive: -89.6%
13,Cc1ccccc1C(=O)NC1CCCN(Cc2ccccc2F)C1 (stereo not drawn),inconclusive: 35.6%
14,COc1ccc2ccn(S(=O)(=O)c3ccccc3)c2c1,inconclusive: -19.3%
15,C=CCn1c(O)c(/C=C2/C=c3ccccc3=N2)c(=O)[nH]c1=S,inconclusive: 27.4%
16,COc1ccccc1NC(=O)Nc1ccccc1C(=O)NCCCN1CCOCC1,inconclusive: -41.8%
17,CCOC(=O)c1c(NC(=O)/C=C/C(=O)O)sc(C)c1-c1ccc(C(C)(C)C)cc1,inactive: -3%
18,COC(=O)c1cccc(NC(=O)NC(=O)c2ccc(Cl)cc2)c1,inconclusive: 4.8%
19,CC(=O)c1nnn(-c2c(F)cccc2F)c1C,inconclusive: -20.3%
20,O=C1NC[C@H](CCCCN2C[C@H](Cc3ccc(O)cc3)N(CCc3ccc(O)cc3)C(=O)C2=O)N(CC2CCCCC2)C1=O,inactive: 1%
21,O=C(N/N=C\c1ccc(-c2ccccc2[N+](=O)[O-])o1)C1COc2ccccc2O1 (stereo not drawn),inactive: -2.5%
22,CC(C)[C@H](NC(=O)N1CCn2c1nc1ccccc12)C(=O)NCc1ccco1,inactive: 2.5%
23,Cc1ccsc1/C=N/NC(=O)c1nnn(-c2nonc2N)c1C(C)C,inactive: -2.4%
24,CC1=C(C(=O)OCCc2ccccc2)C(c2ccsc2)NC(=O)N1C (stereo not drawn),inactive: -1.8%

row,SMILES,inhibition
1,COc1cccc(C(=O)Nc2ncc3c(n2)CC(c2ccc(OC)cc2OC)CC3=O)c1 (stereo not drawn),inactive: -0.9%
2,Cc1nc2ccccn2c1-c1ccnc(=S)[nH]1,inconclusive: -43.9%
3,Cc1nc(-c2ccccc2)[nH]c(=O)c1Oc1ccc(Cl)cc1Cl,inconclusive: -42.4%
4,N#Cc1c(Oc2ccc3ccccc3c2)sc(C(=O)c2ccccc2)c1N,inconclusive: 9.5%
5,COc1cc(CN2CCN(c3ncccn3)CC2)cc(OC)c1,inconclusive: -3%
6,CCN1CCN(c2nc(-c3ccccn3)nc3ccccc23)CC1,inactive: -11.8%
7,COCCCN1C(=O)C(CC(=O)NC2CCCCC2)CC(C(=O)N2CCOCC2)=C1C (stereo not drawn),inactive: -1%
8,COCC(=O)N(C)c1nnc(-c2ccccn2)s1,inconclusive: 12.6%
9,CCOc1ccc2[nH]c3c(N4CCc5ccccc5C4)ncnc3c2c1,inconclusive: -24.9%
10,CCN(Cc1ccc(Br)s1)C(=O)CSc1nnc(C2CC2)n1C1CC1,inactive: 7%
11,O=[n+]1cc(-c2ccc(Cl)cc2)n([O-])c2c1CCC2,inconclusive: -31.8%
12,Cc1nnc(C)n1/N=C/c1ccc(-c2ccccc2Cl)o1,inactive: 0.5%
13,CCOC(=O)c1ccccc1NC(=O)c1ccccc1NS(C)(=O)=O,inconclusive: -33.3%
14,NC(=O)C1C(=O)c2ccccc2C1(C[N+](=O)[O-])c1ccccc1 (stereo not drawn),inactive: 0.3%
15,O=C(COc1ccc(S(=O)(=O)NCc2ccccc2)cc1Cl)NCc1ccccn1,active: 68.3%
16,Cc1ccc(N2C(=O)NC(=O)/C(=C/c3ccoc3)C2=O)cc1,inconclusive: 59.1%
17,Cc1c(Cl)cccc1NC(=O)c1cccnc1,inconclusive: 14.8%
18,CCOC(=O)C(=O)Nc1ccccc1C(=O)OCC,inactive: -5.8%
19,O=C(/C=C/c1cn(CC(O)CN2CCCCC2)c2ccccc12)c1ccccc1 (stereo not drawn),inconclusive: -10.6%
20,Cc1ccc(C)c(NC(=S)N2CCN(c3ccccn3)CC2)c1,inconclusive: -33.3%
21,CC1=CC(=C2C(=O)c3ccccc3C2=O)C=C(C)O1,inactive: 2.6%
22,COc1ccc(/C=C(\C#N)C(=O)N2COCC2(C)C)cc1,inconclusive: -8.2%
23,COc1ccc(C(=O)NCC(=O)OCC(=O)NCc2ccc3c(c2)OCO3)cc1,inactive: -9.2%
24,Cn1c(=O)c2c(nc(Oc3cccc(O)c3)n2C)n(C)c1=O,inconclusive: 5.1%

row,SMILES,inhibition
1,CCN(CC)c1ccc(/C=N\NC(=O)c2cccc3cc[nH]c23)cc1,inconclusive: -30.8%
2,COCCNCCCOc1ccc(Cl)cc1Br,inactive: 1.1%
3,Cn1nc(NC(=O)C2CCC2C(=O)O)c2c(F)cccc21 (stereo not drawn),inconclusive: -202%
4,CCOc1ccc(NC(=O)c2ccccc2C(=O)c2ccccc2)cc1OCC,inconclusive: 11.5%
5,O=C(O)c1cc(-c2ccc(Cl)cc2)n(-c2ccc(F)cc2)n1,inactive: -15.3%
6,COc1ccc2[nH]c(=O)c(CN(C(C)=O)c3cc(C)ccc3C)cc2c1,inactive: 1.2%
7,C=CCNC(=S)/N=c1/ccccn1C,inconclusive: 26.2%
8,COc1cc(NC(=O)c2cc3c(CO)cnc(C)c3oc2=Nc2cccc(C(N)=O)c2)cc(OC)c1,inconclusive: -32.2%
9,Cc1nc(Nc2cccc(Cl)c2)c2oc3ccccc3c2n1,inconclusive: -20.9%
10,O=C(N/N=C/c1cn(CCOc2ccccc2)c2ccccc12)c1ccncc1,inactive: -5.2%
11,CC(C)c1ccc(C(=O)N2CCCCC2c2cc(C(=O)Nc3ccncc3)no2)cc1 (stereo not drawn),inactive: -2.8%
12,Cc1ccc2c3c([nH]c2c1C)-c1nonc1CC3,inconclusive: -8.8%
13,CSc1ccc(C(=O)C2CCCN(CCCn3cccn3)C2)cc1 (stereo not drawn),active: 37.2%
14,COc1cc(/C=N/N2CCN(Cc3ccc(Cl)cc3)CC2)ccc1OC(C)=O,inconclusive: 22.9%
15,CCOC(=O)Cn1nnc(-c2ccccc2)n1,inconclusive: -7%
16,O=C1CCCC1C(=O)Nc1ccc2ccccc2c1 (stereo not drawn),inconclusive: -6.2%
17,CCOC(=O)[C@]12CCCC=C1N(Cc1cccc3ccccc13)C(=O)[C@H](CC(=O)N1CCC(c3ccccc3)CC1)C2,inactive: -0.6%
18,Cc1nc(C)n(C(Oc2ccc(Cl)cc2Cl)C(=O)C(C)(C)C)n1 (stereo not drawn),inconclusive: 28%
19,CCOC(=O)C1CCN(C(=O)c2[nH]c3ccc(OC)cc3c2C)CC1,inconclusive: -5.3%
20,Cc1ccc(CC2CC(=O)N(c3ncccn3)C2=O)cc1 (stereo not drawn),inconclusive: 30.8%
21,Cc1cccc(C(=O)c2ccccc2C(=O)O)c1O,inactive: -14.2%
22,CCCCCCCCCCCCn1ccc(=N)cc1,inconclusive: -56.7%
23,O=C(O)C1CCC(c2ccc(-c3ccccc3)cc2)CC1 (stereo not drawn),inconclusive: -5%
24,Cc1cc(C)c2c(N)c(C(=O)Nc3ccccc3Br)sc2n1,inconclusive: -22.4%

# Fetched by structure from the list above (two):
row,SMILES,inhibition
24,Cc1cc(C)c2c(N)c(C(=O)Nc3ccccc3Br)sc2n1,inconclusive: -22.4%
15,CCOC(=O)Cn1nnc(-c2ccccc2)n1,inconclusive: -7%

# (cont.)

row,SMILES,inhibition
1,CC(C)Oc1ccc(/C=C(\C#N)C(=O)NC2CC2)cc1,inconclusive: 21%
2,Cc1ccc(C(=S)N2CCCCCC2)cc1,inconclusive: -9.2%
3,COc1cc(/C=C\C(=O)Nc2cc(=O)n(C)c(=O)n2C)cc(OC)c1OC,inactive: -1.4%
4,CCCCSCc1ccc(C(=O)O)o1,inactive: 6%
5,c1ccc(-c2nc(-n3ccnc3)nc(-n3ccnc3)n2)cc1,inactive: -2.6%
6,COc1ccc(-c2c(=O)n(OCc3ccccn3)c3ccccc3[n+]2[O-])cc1OC,inconclusive: 21%
7,O=C(/C=C/c1ccccc1)N(Cc1ccc(Cl)cc1)C1CCS(=O)(=O)C1 (stereo not drawn),inconclusive: 28.1%
8,CNc1cnc(-c2ccc(O)c(OC)c2)cn1,inactive: -5.9%
9,CN(C)/C=C/C(=O)c1ccc2noc(-c3ccc(F)cc3)c2c1,inconclusive: -21.3%
10,COc1ccc(C(=O)N(CCc2ccccc2)Cc2ccccc2)c(OC)n1,inconclusive: 9.7%
11,CC(=O)NNC(=O)c1sc(=S)n(C)c1C,inconclusive: -11.5%
12,COC(=O)c1[nH]c(C)c(/C(O)=C2\C(=O)C(=O)N(CCN3CCOCC3)C2c2ccc(C)o2)c1C (stereo not drawn),inconclusive: -111%
13,Cc1ccc(C)c(OCC(=O)O/N=C(\N)c2cccc([N+](=O)[O-])c2)c1,inconclusive: -22.4%
14,O=C(/C=C/Nc1ccc(F)cc1F)c1ccc(Br)cc1,inconclusive: -5.6%
15,CC1(C)CC(=O)c2cc(OCC(=O)N3CCOCC3)ccc2O1,inactive: -2%
16,O=C(Nc1ccccc1)C1CC2CCC1C2 (stereo not drawn),inconclusive: -29.7%
17,COc1ccc(NC(=O)N(C)C[C@H]2Oc3ccc(NC(=O)C4CC4)cc3CC(=O)N([C@@H](C)CO)C[C@@H]2C)cc1,inactive: -2.6%
18,CCCN1C(=O)c2ccccc2NC1c1ccc(O)c(OCC)c1 (stereo not drawn),inconclusive: -14%
19,C[C@@H]1CN([C@@H](C)CO)C(=O)CCCn2nncc2CO[C@@H]1CN(C)C(=O)Nc1cccc(Oc2ccccn2)c1,inactive: -4.6%
20,Cc1ccc(NS(=O)(=O)c2c(C)ccc3nsnc23)c([N+](=O)[O-])c1,inconclusive: 60.9%
21,Cc1cc(NS(=O)(=O)c2ccc(NC(=O)C(C)Oc3ccccc3Cl)cc2)no1 (stereo not drawn),inconclusive: -8.8%

# Arranged by molar mass (falling): some entries from above
row,SMILES,inhibition
14,COc1cc(/C=N/N2CCN(Cc3ccc(Cl)cc3)CC2)ccc1OC(C)=O,inconclusive: 22.9%
7,CC(C)CCn1c(=O)c(C(=O)NCc2ccco2)c(O)c2ccccc21,inconclusive: -49.2%
22,COc1ccc(/C=C(\C#N)C(=O)N2COCC2(C)C)cc1,inconclusive: -8.2%
1,CC(C)Oc1ccc(/C=C(\C#N)C(=O)NC2CC2)cc1,inconclusive: 21%
16,O=C1CCCC1C(=O)Nc1ccc2ccccc2c1 (stereo not drawn),inconclusive: -6.2%
21,CC1=CC(=C2C(=O)c3ccccc3C2=O)C=C(C)O1,inactive: 2.6%
